For one substance, binding results are on record in paper PMC3380850.

The chains behind the UniProt entries cited, without tags or fusion partners.
UniProt Q8CJG0: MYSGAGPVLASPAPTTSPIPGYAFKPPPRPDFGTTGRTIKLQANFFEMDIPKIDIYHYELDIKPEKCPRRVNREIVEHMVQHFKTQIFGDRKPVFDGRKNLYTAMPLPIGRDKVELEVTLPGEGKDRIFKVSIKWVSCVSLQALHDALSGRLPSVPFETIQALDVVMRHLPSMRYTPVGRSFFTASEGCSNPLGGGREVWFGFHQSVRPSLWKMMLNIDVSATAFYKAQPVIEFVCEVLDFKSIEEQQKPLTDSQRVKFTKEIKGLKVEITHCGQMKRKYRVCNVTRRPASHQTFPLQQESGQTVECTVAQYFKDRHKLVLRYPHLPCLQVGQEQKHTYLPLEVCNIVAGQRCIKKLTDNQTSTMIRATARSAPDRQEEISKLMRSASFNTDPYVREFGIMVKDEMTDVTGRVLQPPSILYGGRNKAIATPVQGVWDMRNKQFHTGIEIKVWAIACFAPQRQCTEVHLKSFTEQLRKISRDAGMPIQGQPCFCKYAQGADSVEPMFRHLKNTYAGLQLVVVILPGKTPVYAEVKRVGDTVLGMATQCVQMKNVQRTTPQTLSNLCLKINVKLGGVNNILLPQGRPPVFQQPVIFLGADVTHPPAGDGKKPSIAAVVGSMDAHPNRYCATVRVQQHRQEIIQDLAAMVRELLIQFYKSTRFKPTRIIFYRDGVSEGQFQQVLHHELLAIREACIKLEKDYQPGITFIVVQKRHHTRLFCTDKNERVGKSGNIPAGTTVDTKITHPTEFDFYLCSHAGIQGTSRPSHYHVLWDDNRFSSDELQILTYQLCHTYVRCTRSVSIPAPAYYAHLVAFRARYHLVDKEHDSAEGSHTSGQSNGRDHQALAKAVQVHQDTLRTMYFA

Results are given in words; binding and its absence hold for the method and conditions named. Binding seen in cells or lysates may run through a third protein. Some binding calls cover weakened binding; strength is not graded here.

This test addresses T1, mouse Caprin1 (Cytoplasmic activation- and proliferation-associated protein 1) (mouse (endogenous in brain)) (UniProt Q60865).
T1 sequence: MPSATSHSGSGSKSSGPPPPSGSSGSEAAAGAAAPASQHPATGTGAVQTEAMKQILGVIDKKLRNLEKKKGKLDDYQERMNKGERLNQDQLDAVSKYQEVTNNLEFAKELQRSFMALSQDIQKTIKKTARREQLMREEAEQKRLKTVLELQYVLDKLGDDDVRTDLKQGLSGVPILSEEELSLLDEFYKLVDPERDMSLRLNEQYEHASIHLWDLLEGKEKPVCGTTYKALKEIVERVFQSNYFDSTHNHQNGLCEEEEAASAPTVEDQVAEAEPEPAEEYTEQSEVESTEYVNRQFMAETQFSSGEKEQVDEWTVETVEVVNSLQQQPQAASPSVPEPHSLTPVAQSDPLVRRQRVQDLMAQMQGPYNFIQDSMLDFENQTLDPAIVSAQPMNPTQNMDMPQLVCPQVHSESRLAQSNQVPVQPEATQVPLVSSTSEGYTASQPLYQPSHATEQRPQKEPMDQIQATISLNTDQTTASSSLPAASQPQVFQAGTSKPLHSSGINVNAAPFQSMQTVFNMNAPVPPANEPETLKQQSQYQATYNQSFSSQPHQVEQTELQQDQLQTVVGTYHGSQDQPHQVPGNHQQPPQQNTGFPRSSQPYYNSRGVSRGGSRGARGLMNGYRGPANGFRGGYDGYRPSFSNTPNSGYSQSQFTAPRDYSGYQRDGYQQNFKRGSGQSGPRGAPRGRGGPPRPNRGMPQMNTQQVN
The test can be described thus: co-IP; WT and KO mouse brain lysates immunoprecipitated with mAb7G1-1 (which binds Caprin1 and FMRP); two-colour immunoblot (Odyssey, LI-COR) with mAb7G1-1 and rabbit anti-Ago2.

For Ago2 (from UniProt Q8CJG0 1-860), the binding result is on record as “binds”.
